Experimental data taken from the supplement of paper PMC9015667.
Structures can show the parent of a compound that is named as a salt. This is one part of the list. Many values rest on one well or one pass, so single values are uncertain.

Legend:
Test in all cases: reduction in cell viability relative to untreated/vehicle; higher = more growth inhibition
Conditions in all cases: 200 nM; 72 h
M229P = system: M229P (parental melanoma line)
M229R = system: M229R (matched melanoma line resistant to BRAF inhibitors)
M238P = system: M238P (parental melanoma line)
M238R = system: M238R (matched melanoma line resistant to BRAF inhibitors)
M249P = system: M249P (parental melanoma line)
M249R = system: M249R (matched melanoma line resistant to BRAF inhibitors)
UACC62P = system: UACC62P (parental melanoma line)
UACC62R = system: UACC62R (matched melanoma line resistant to BRAF inhibitors)

Measured: reduction in cell viability

COc1cc(Cl)cn2c(-c3cccc(NC4CNC4)n3)cnc12
< 0%: all assays above

CCOC(=O)c1ncn2c1CN(C)C(=O)c1cc(F)ccc1-2 [Flumazenil]
8.46%: M249R
4.29%: UACC62P
< 0%: all other assays above

COc1ccc(Nc2cc(-c3cnc(N)nc3)nc(N3CCOCC3)n2)cn1
10.7%: M238R
< 0%: all other assays above

COc1cc2nccc(Oc3ccc(NC(=O)Nc4cc(C)on4)c(Cl)c3)c2cc1OC [Tivozanib]
< 0%: all assays above

O=C(O)c1cn(-c2ccc(F)cc2)c2cc(N3CCNCC3)c(F)cc2c1=O [Sarafloxacin hydrochloride]
< 0%: all assays above

COc1cccc(OC)c1-c1cc(C(=O)NC2(C(=O)O)C3CC4CC(C3)CC2C4)nn1-c1ccnc2cc(Cl)ccc12 (centres undefined) [Meclinertant]
< 0%: all assays above

CCC[C@H](NC(=O)[C@@H]1[C@H]2CCC[C@H]2CN1C(=O)[C@@H](NC(=O)[C@@H](NC(=O)c1cnccn1)C1CCCCC1)C(C)(C)C)C(=O)C(=O)NC1CC1 [Telaprevir (VX-950)]
0.85%: UACC62P
0.49%: M249R
< 0%: all other assays above

Cc1cc(O)c2c(c1)C(=O)c1cc(O)cc(O)c1C2=O [Emodin]
< 0%: all assays above

OC[C@H]1O[C@@H](Oc2ccc(O)cc2)[C@H](O)[C@@H](O)[C@@H]1O [Arbutin]
4.25%: M249R
< 0%: all other assays above

C[N+](C)([O-])CCNc1ccc(NCC[N+](C)(C)[O-])c2c1C(=O)c1c(O)ccc(O)c1C2=O [Banoxantrone]
10.9%: UACC62R
< 0%: all other assays above

O=C(O)CCCCC(CCSCc1ccccc1)SCc1ccccc1 (centres undefined)
0.09%: M249R
14.1%: UACC62P
< 0%: all other assays above

Cn1cnc(N)c2ncnc1-2 [3-Methyladenine]
< 0%: all assays above

O=C(O)[C@]1(Cc2cccc(Nc3nccs3)n2)CC[C@@H](Oc2cccc(Cl)c2F)CC1
< 0%: all assays above

COC(=O)[C@@H]1[C@H]2C[C@H]3c4[nH]c5ccccc5c4CCN3C[C@@H]2CC[C@@H]1O [Yohimbine]
< 0%: all assays above

O=C(Nc1cc(C(F)(F)F)cc(C(F)(F)F)c1)c1cc(Cl)ccc1O
26.8%: UACC62P
< 0%: M229P | M238R
36.1%: UACC62R
14.3%: M229R
14.6%: M249P
27.4%: M238P
1.42%: M249R

CC(=O)O[C@]1(C(C)=O)CC[C@H]2[C@@H]3C[C@H](C)C4=CC(=O)CC[C@]4(C)[C@H]3CC[C@@]21C [Medroxyprogesterone acetate]
< 0%: all assays above

CC(C)C[C@H](NC(=O)[C@H](Cc1ccccc1)NC(=O)c1cnccn1)B(O)O [Bortezomib]
85.9%: M249R
86.3%: UACC62R
89.8%: M249P
85.8%: M229R
92.5%: UACC62P
88.2%: M229P
92%: M238R
86.2%: M238P

Cc1csc(NC(=O)CSc2nc3c(c(C(F)(F)F)c2C#N)CCC3)n1 [Irestatin 9389]
1.87%: UACC62P
< 0%: all other assays above

C[S+]([O-])c1ccc(-c2nc(-c3ccc(F)cc3)c(-c3ccncc3)[nH]2)cc1 (centres undefined)
< 0%: all assays above

CC1(C)Cc2c(-c3ccccc3)c(-c3ccc(Cl)cc3)c(CC(=O)O)n2C1 [Licofelone]
< 0%: all assays above

O=C(NOCC1CC1)c1ccc(F)c(F)c1Nc1ccc(I)cc1Cl
10.1%: UACC62R
13.2%: M249P
58.4%: UACC62P
24.1%: M238P
6.03%: M229P
< 0%: all other assays above

O=C1Nc2ccc(Cl)cc2[C@@](C#CC2CC2)(C(F)(F)F)O1 [Efavirenz]
27.5%: UACC62P
0.87%: M249P
< 0%: all other assays above

COC(=O)c1ccc2c(c1)NC(=O)/C2=C(\Nc1ccc(N(C)C(=O)CN2CCN(C)CC2)cc1)c1ccccc1 [Nintedanib (BIBF 1120)]
< 0%: all assays above

CC#CCn1c(N2CCC[C@@H](N)C2)nc2c1c(=O)n(Cc1nc(C)c3ccccc3n1)c(=O)n2C [Linagliptin]
< 0%: all assays above

COc1ccc([C@@H]2Sc3ccccc3N(CCN(C)C)C(=O)[C@@H]2OC(C)=O)cc1 [Diltiazem hydrochloride]
< 0%: all assays above

Nc1nc(=O)n([C@@H]2CS[C@H](CO)O2)cc1F [Emtricitabine]
< 0%: all assays above

N#C[C@@H]1C[C@@H]2C[C@@H]2N1C(=O)[C@@H](N)C12CC3CC(CC(O)(C3)C1)C2 [Saxagliptin]
< 0%: all assays above

C=CC(=O)Nc1cccc(Sc2nc(Nc3ccc(N4CCN(C)CC4)cc3)ncc2Cl)c1
< 0%: all assays above

CCS(=O)(=O)c1cccc(-c2cc(C(=O)NC3CCN(C)CC3)c(C)c3[nH]c4ncc(C)cc4c23)c1
33.7%: UACC62P
62.6%: UACC62R
12.8%: M249P
79.2%: M238R
51%: M238P
13.4%: M249R
27.9%: M229R
5.16%: M229P

CC1=C(C(=O)Nc2cc3cn[nH]c3cc2F)C(c2ccc(C(F)(F)F)cc2)CC(=O)N1 (centres undefined)
< 0%: all assays above

N[C@@H](Cc1ccc(O)c(O)c1)C(=O)O [Levodopa]
< 0%: all assays above

Cc1nc2n(c(=O)c1CCN1CCC(c3noc4cc(F)ccc34)CC1)CCCC2 [Risperidone???]
2.93%: UACC62P
< 0%: all other assays above

O=C(C1CC1)N1CC[C@@H](Cn2c(-c3ccc(-c4ccc5occc5c4)cc3)nc3cnccc32)C1
< 0%: all assays above

Cc1cncc2cccc(S(=O)(=O)N3CCCN(C(=O)CN)C[C@@H]3C)c12 [Glycyl-H-1152]
< 0%: all assays above

O=C(/C=C/c1ccc(/C=C/C(=O)Nc2ccc(C3=NCCN3)cc2)cc1)Nc1ccc(C2=NCCN2)cc1
< 0%: all assays above

NS(=O)(=O)c1cc(Cl)c(Cl)c(S(N)(=O)=O)c1 [Diclofenamide]
7.8%: M249R
< 0%: all other assays above

CC/C=C\CC1C(=O)CCC1CC(=O)OC (centres undefined) [methyl jasmonate]
< 0%: all assays above

CC(C)(CO)[C@@H](O)C(=O)NCCC(=O)O [Pantothenic acid]
< 0%: all assays above

COc1ccc(-c2cc(=O)c3c(O)cc(O[C@@H]4O[C@H](CO[C@@H]5O[C@@H](C)[C@H](O)[C@@H](O)[C@H]5O)[C@@H](O)[C@H](O)[C@H]4O)cc3o2)cc1O [Diosmin]
< 0%: all assays above

Reprinted at random: four records from the list.
O=C(C1CC1)N1CC[C@@H](Cn2c(-c3ccc(-c4ccc5occc5c4)cc3)nc3cnccc32)C1
< 0%: all assays above

O=C(/C=C/c1ccc(/C=C/C(=O)Nc2ccc(C3=NCCN3)cc2)cc1)Nc1ccc(C2=NCCN2)cc1
< 0%: all assays above

Cc1cncc2cccc(S(=O)(=O)N3CCCN(C(=O)CN)C[C@@H]3C)c12 [Glycyl-H-1152]
< 0%: all assays above

NS(=O)(=O)c1cc(Cl)c(Cl)c(S(N)(=O)=O)c1 [Diclofenamide]
7.8%: M249R
< 0%: all other assays above

(list continues)

COC(=O)[C@H]1[C@H]2C[C@@H]3c4[nH]c5cc(OC)ccc5c4CCN3C[C@H]2C[C@@H](OC(=O)c2cc(OC)c(OC)c(OC)c2)[C@@H]1OC [Reserpine]
2.98%: UACC62P
< 0%: all other assays above

COC(=O)N[C@H](C(=O)N[C@@H](Cc1ccccc1)[C@@H](O)CN(Cc1ccc(-c2ccccn2)cc1)NC(=O)[C@@H](NC(=O)OC)C(C)(C)C)C(C)(C)C [Atazanavir sulfate]
< 0%: all assays above

CC(C)[N+]1(C)[C@@H]2CC[C@H]1C[C@@H](OC(=O)C(CO)c1ccccc1)C2 (some centres undefined) [Ipratropium bromide hydrate]
< 0%: all assays above

N=C1N[C@H]2[C@H](CS[C@H]2CCCCC(=O)O)N1 [2-Iminobiotin]
3.37%: UACC62P
< 0%: all other assays above
